PubChem BioAssay AID1259405 | NCATS – 2018
Purpose: 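Mouse-designed siRNAs used to find CHO productivity engineering targets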 (primary screen). Cells: Chinese hamster CHO-K1 ovary cells with stable secreted eGFP expression. Reagent: single siRNA against mouse genes, 0.8 pmol siRNA per well (2 µl of 400 nM stock). Duration: 3 days. Detection: 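Per-well intracellular GFP measured by laser scanning cytometry, plus viability from ATP luminescence, each relative to plate median of non-targeting control wells, in %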. Direction: GFP, % of control: higher = more GFP per well, higher productivity; viability (ATP), % of control: higher = more viable cells (more ATP). Active means: 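a knock-down is called active if GFP reaches 120% or more of non-targeting control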.
The deposit covers about 50,000 reagents; below is an unselected part. About 4,000 of all reagents (8%) count as active. 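Mouse siRNA library applied to hamster cells; one well for each siRNA.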 Entries without a mark were called inactive. Reagents against one gene are numbered here. Reagent sequences are not shown.

gene	reagent	GFP, % of control	viability (ATP), % of control
Vmn2r81	1	45.9	40.6
Vmn2r81	2	57.6	61.1
Vmn2r81	3	68.3	83.3
Copg1	1	136 (active)	79.7
Copg1	2	69.4	47.6
Copg1	3	78.9	71
Kcng3	1	72.4	64.5
Kcng3	2	84.5	65.3
Kcng3	3	65	66.9
Lingo4	1	102	66.2
Lingo4	2	106	86
Lingo4	3	65.7	93.4

Laid out differently: results already given
| gene | reagent | GFP, % of control | viability (ATP), % of control |
| --- | --- | --- | --- |
| Copg1 | 3 | 78.9 | 71 |
| Kcng3 | 1 | 72.4 | 64.5 |
| Kcng3 | 2 | 84.5 | 65.3 |

Continued:
gene	reagent	GFP, % of control	viability (ATP), % of control
Trem5	1	72.5	64.5
Trem5	2	76	72.5
Trem5	3	93.1	82.9
Or10ag57	1	121 (active)	72.2
Or10ag57	2	68.5	63.2
Or10ag57	3	93.8	103
Tfap2e	1	59.1	55.8
Tfap2e	2	59.7	59.3
Tfap2e	3	73.3	87.7
Bcor	1	29.4	52.3
Bcor	2	36.6	65.2
Bcor	3	121 (active)	139
Nudt9	1	51.1	86.1
Nudt9	2	86	76.9
Fbxw21	1	68.6	79.9
Fbxw21	2	82.8	87.5
Fbxw21	3	91.1	71.5
Tspan6	1	98.4	85.4
Tspan6	2	41.8	41.1
Tspan6	3	87.8	112
Drg1	1	133 (active)	124
Drg1	2	121 (active)	120
Drg1	3	54.7	70.3
